Measured values: paper PMC5962530

How the values were obtained:
[1] = biological target: T1, biotin-GX1 (biotinylated peptide GX1); assay: affinity purification with mass spectrometry; biotin-GX1 pre-conjugated to Dynabeads M-280 Streptavidin; co-HUVEC lysate first cleared with bare beads (room temperature, 6 h) and with biotin-URP beads (4 °C overnight), then incubated with GX1 beads at 4 °C for 36 h; ~70 kDa Coomassie band excised, trypsin digested, Q-Exactive MS; only the target purified
T1 sequence (peptide, biotinylated (position not stated); cyclic peptide): CGNSNPKSC

[2] = biological target: T2, biotin-URP (biotinylated unrelated peptide); assay: as above
T2 sequence (peptide, biotinylated (position not stated); cyclo-peptide): CNKSPSGNC

binding [1]: binds
binding [2]: no binding
B1: transglutaminase-2 (TGM2) (protein, UniProt P21980 1-687)
chain: MAEELVLERCDLELETNGRDHHTADLCREKLVVRRGQPFWLTLHFEGRNYEASVDSLTFSVVTGPAPSQEAGTKARFPLRDAVEEGDWTATVVDQQDCTLSLQLTTPANAPIGLYRLSLEASTGYQGSSFVLGHFILLFNAWCPADAVYLDSEEERQEYVLTQQGFIYQGSAKFIKNIPWNFGQFEDGILDICLILLDVNPKFLKNAGRDCSRRSSPVYVGRVVSGMVNCNDDQGVLLGRWDNNYGDGVSPMSWIGSVDILRRWKNHGCQRVKYGQCWVFAAVACTVLRCLGIPTRVVTNYNSAHDQNSNLLIEYFRNEFGEIQGDKSEMIWNFHCWVESWMTRPDLQPGYEGWQALDPTPQEKSEGTYCCGPVPVRAIKEGDLSTKYDAPFVFAEVNADVVDWIQQDDGSVHKSINRSLIVGLKISTKSVGRDEREDITHTYKYPEGSSEEREAFTRANHLNKLAEKEETGMAMRIRVGQSMNMGSDFDVFAHITNNTAEEYVCRLLLCARTVSYNGILGPECGTKYLLNLNLEPFSEKSVPLCILYEKYRDCLTESNLIKVRALLVEPVINSYLLAERDLYLENPEIKIRILGEPKQKRKLVAEVSLQNPLPVALEGCTFTVEGAGLTEEQKTVEIPDPVEAGEEVKVRMDLLPLHMGLHKLVVNFESDKLKAVKGFRNVIIGPA

No constants are given. Whether binding was seen depends on the method and setting. In cells and extracts the contact can be indirect. A yes stands for co-enrichment or nearness to the bait. Other partners may have been found. For some assays here: No binding means not detected with the bait.
